Data reported in PubChem BioAssay AID1508637 (National Center for Advancing Translational Sciences (NCATS), 2021).
The shares of active, inactive and inconclusive entries below differ from those in the screen. Potencies beside an inconclusive call are fits to weak or partial responses and may not hold up. Active and inactive are the calls of the source. Calls follow the shape of the dose curve; as a rule, active = well fitted inhibition curve with a large enough effect; inconclusive = small, poorly fitted or top-dose-only effect; inactive = flat fitted curve, though single readings scatter. Non-standard residues stand in square brackets, D forms with d. Residues, ends and D or L forms follow the SMILES beside them. *: point of attachment. Cbz = O=C(OCc1ccccc1)*; Nva = CCC[CH](N)C(=O)O

Assay: qHTS for characterization and localization of zebrafish homologs of the human ABCB1 multidrug transporter: empty vector transfected cells
Settings: empty vector transfected control cells, CellTiter-Glo luminescence viability, 72 h; activity change, negative = inhibition: at 46.1 µM (top of the series)
From the text: The zebrafish has emerged as a potential model to study the blood-brain barrier (BBB) given its similarities with mammalian systems. However, little information has been available with regard to homologous ATP-binding cassette transporters expressed at the zebrafish BBB. Two transporters that are highly expressed at the human BBB are P-glycoprotein (P-gp, encoded by the ABCB1 gene) and ABCG2 (encoded by the ABCG2 gene). In this study, we focus on characterization of P-gp homologs in the zebrafish, which has two genes that are homologous to human ABCB1 - abcb4 and abcb5. We generated stably-transfected cell lines to determine their substrate specificities. […] Zebrafish abcb4 also colocalized with claudin 5 expression in brain endothelial cells.
A high-throughput screen was performed as previously described on empty vector transfected cells, P-gp-overexpressing MDR-19 cells and cells transfected with full-length zebrafish abcb4 (ZF Abcb4) or abcb5 (ZF Abcb5). Briefly, cells were plated into 1536-well plates at a density of 500 cells/well in 5 uL media. P-gp substrate compounds (approximately 90) selected from our previous study were then added at varying concentrations using a 1536-head pin tool (Kalypsis, San Diego, CA) and plates were incubated at 37C in 5% CO2 for 72 h. CellTiter-Glo reagent (Promega) was dispensed into the wells, incubated for 5 min and luminescence was read on a ViewLux instrument (Perkin-Elmer).
Cytotoxic compounds were defined as those that yielded a curve class of -1.1, -1.2, -2.1, -2.2, -2.3, or -2.4, a maximum response of >50% and an AC50 of < 10 uM. All compounds from screening analysis were tested in Vector (empty vector control), MDR-19 (P-gp overexpressing), zebrafish abcb4 (ZF Abcb4) and abcb5 (ZF Abcb5) expression cell lines.
1. Tobie D Lee, Olivia W Lee, Kyle R Brimacombe, Lu Chen, Rajarshi Guha, Sabrina Lusvarghi, Bethilehem G Tebase, Carleen Klumpp-Thomas, Robert W Robey, Suresh V Ambudkar, Min Shen, Michael M Gottesman, Matthew D Hall. A High-Throughput Screen of a Library of Therapeutics Identifies Cytotoxic Substrates of P-glycoprotein. Mol Pharmacol. 2019, Nov;96(5):629-640.

| SMILES | Potency | activity change, negative = inhibition |
| --- | --- | --- |
| COc1cc(C(=O)NC2CCN(C)CC2)ccc1Nc1ncc2c(n1)N(C1CCCC1)CC(F)(F)C(=O)N2C | active: 0.0418 µM |  |
| Cc1ccc(C(=O)N(CCCN)[C@@H](c2oc3cc(Cl)ccc3c(=O)c2Cc2ccccc2)C(C)C)cc1 | inconclusive: 4.69 µM [inhibitor, partial curve, poor fit] |  |
| COc1cc(NCc2ccc3nc(N)nc(N)c3c2C)cc(OC)c1OC | inconclusive: 0.105 µM [inhibitor, full curve] |  |
| CCn1c(-c2nonc2N)nc2c(C#CC(C)(C)O)ncc(OC[C@H]3CCCNC3)c21 | active: 1.18 µM |  |
| COc1cc2c(NC3CCN(C(C)C)CC3)nc(N3CCCN(C)CC3)nc2cc1OCCOCCN(C)C | inconclusive: 20.9 µM [inhibitor, partial curve] |  |
| COc1cc2ncn(-c3cc(OCc4ccccc4C(F)(F)F)c(C(N)=O)s3)c2cc1OC | active: 1.91 µM |  |
| CC(=O)O[C@H]1C(=O)[C@@]2(C)C([C@H](OC(=O)c3ccccc3)[C@]3(O)C[C@H](OC(=O)[C@H](O)[C@@H](NC(=O)c4ccccc4)c4ccccc4)C(C)=C1C3(C)C)[C@]1(OC(C)=O)CO[C@@H]1C[C@@H]2O (stereo partly drawn) | inconclusive: 0.0118 µM [inhibitor, full curve] |  |
| C#CCN(Cc1cc2c(=O)n(C)c(CN3CCN(C)CC3)nc2cc1Cl)c1ccc(C(=O)NCc2cccnc2)cc1 |  | inconclusive: -33% [inhibitor] |
| CCN1CCN(Cc2ccc(NC(=O)Nc3ccc(Oc4cc(NC)ncn4)cc3)cc2C(F)(F)F)CC1 | inconclusive: 4.18 µM [inhibitor, partial curve] |  |
| COc1cc(N2CCC(O)CC2)ccc1Nc1nc(Nc2ccccc2S(=O)(=O)C(C)C)c2[nH]cnc2n1 | inconclusive: 2.35 µM [inhibitor, full curve] |  |
| CC(=O)OC1C(=O)C2(C)C(O)CC3OCC3(OC(C)=O)C2C(OC(=O)c2ccccc2)C2(O)CC(OC(=O)C(O)C(NC(=O)c3ccccc3)c3ccccc3)C(C)=C1C2(C)C (stereo not drawn) | inconclusive: 0.0166 µM [inhibitor, full curve] |  |
| CC1(C)CC(NC(=O)C(=O)Nc2ccc(Br)cc2)CC(C)(C)N1 | inconclusive: 20.9 µM [inhibitor, partial curve] |  |
| CCC1(O)CC2CN(CCc3c([nH]c4ccccc34)[C@@](C(=O)OC)(c3cc4c(cc3OC)N(C=O)[C@H]3[C@](O)(C(=O)OC)[C@H](OC(C)=O)[C@]5(CC)C=CCN6CC[C@]43[C@@H]65)C2)C1 (stereo partly drawn) | inconclusive: 0.0187 µM [inhibitor, full curve] |  |
| CC1(C)CC[C@]2(C(=O)OC3OC(CO)C(O)C(O)C3O)CC[C@]3(C)C(=CCC4[C@@]5(C)CC[C@H](OC6OC(C(=O)O)C(O)C(O)C6O)C(CO)(CO)C5CC[C@]43C)[C@@H]2C1 (stereo partly drawn) | active: 2.23 µM |  |
| COC(C(=O)N1Cc2[nH]nc(NC(=O)c3ccc(N4CCN(C)CC4)cc3)c2C1)c1ccccc1 (stereo not drawn) | inconclusive: 2.35 µM [inhibitor, full curve] |  |
| CC[C@@]1(O)CC2CN(CCc3c([nH]c4ccccc34)[C@](C(=O)OC)(c3cc4c(cc3OC)N(C)C3[C@@](O)(C(N)=O)[C@H](O)[C@]5(CC)C=CCN6CC[C@@]43[C@@H]65)C2)C1 (stereo partly drawn) | inconclusive: 0.0418 µM [inhibitor, full curve] |  |
| O=C(NC1CC1)c1cccc(-c2ccc3c(NC(=O)C4CC4)n[nH]c3c2)c1 | inconclusive: 9.35 µM [inhibitor, full curve] |  |

| SMILES | Potency | activity change, negative = inhibition |
| --- | --- | --- |
| CCC1=CC2CN(C1)Cc1c([nH]c3ccccc13)[C@@](C(=O)OC)(c1cc3c(cc1OC)N(C)[C@H]1[C@@](O)(C(=O)OC)[C@H](OC(C)=O)[C@]4(CC)C=CCN5CC[C@]31[C@@H]54)C2 (stereo partly drawn) | active: 0.105 µM |  |
| N=C(N)c1ccc(OCCCCCOc2ccc(C(=N)N)cc2)cc1 | active: 2.64 µM |  |
| CCN(CCCO)CCCOc1ccc2c(Nc3cc(CC(=O)Nc4cccc(F)c4)[nH]n3)ncnc2c1 |  | inactive: -7.2% |
| C[C@@H]1O[C@@H](O[C@H]2[C@H](O)[C@@H](O)[C@H](O[C@H]3[C@H](O[C@H]4CC[C@@]5(C)C(=CC[C@@H]6C5CC[C@]5(C)[C@@H]7[C@H](C[C@@H]65)O[C@]5(CC[C@@](C)(CO[C@@H]6O[C@H](CO)[C@@H](O)[C@H](O)[C@H]6O)O5)[C@H]7C)C4)O[C@H](CO)[C@@H](O)[C@@H]3O)O[C@@H]2CO)[C@H](O)[C@H](O)[C@H]1O (stereo partly drawn) | active: 0.353 µM |  |
| CCC(C)n1ncn(-c2ccc(N3CCN(c4ccc(OCC5COC(Cn6cncn6)(c6ccc(Cl)cc6Cl)O5)cc4)CC3)cc2)c1=O (stereo not drawn) | inconclusive: 7.43 µM [inhibitor, full curve] |  |
| CCCC(C=O)NC(=O)C(CC(C)C)NC(=O)C(CC(C)C)NC(=O)OCc1ccccc1 (stereo not drawn) (Cbz-Leu-Leu-[Nva]-aldehyde; configuration not given here) | active: 1.48 µM |  |
| C=C1CO[C@@]2(O[C@H]3CC4C5CC=C6C[C@@H](O)C[C@@H](O[C@@H]7OC[C@H](O)[C@H](O[C@@H]8OC[C@@H](O)[C@H](O)[C@H]8O)[C@H]7O[C@@H]7O[C@@H](C)[C@H](OC(C)=O)[C@@H](OC(C)=O)[C@H]7OC(C)=O)[C@]6(C)C5CC[C@]4(C)[C@@H]3[C@@H]2C)[C@@H](O)[C@H]1OC1OC(C)C(O)C(O)C1O (stereo partly drawn) | inconclusive: 2.23 µM [inhibitor, partial curve] |  |
| CC(C)C[C@H](NC(=O)[C@H](CCc1ccccc1)NC(=O)CN1CCOCC1)C(=O)N[C@@H](Cc1ccccc1)C(=O)N[C@@H](CC(C)C)C(=O)[C@@]1(C)CO1 | active: 0.0469 µM |  |
| O=C(Nc1cn[nH]c1-c1nc2ccc(CN3CCOCC3)cc2[nH]1)NC1CC1 | inconclusive: 4.69 µM [inhibitor, full curve] |  |
| CC(=O)OC12COC1CC(O)C1(C)C(=O)C(O)C3=C(C)C(OC(=O)C(O)C(NC(=O)OC(C)(C)C)c4ccccc4)CC(O)(C(OC(=O)c4ccccc4)C21)C3(C)C (stereo not drawn) | inconclusive: 0.0047 µM [inhibitor, full curve] |  |
| CCc1cccc(CC)c1NC(=O)N1Cc2[nH]nc(NC(=O)c3ccc(N4CCN(C)CC4)cc3)c2C1 | inconclusive: 9.35 µM [inhibitor, full curve] |  |
| COc1cc([C@@H]2c3cc4c(cc3[C@H](O)[C@H]3COC(=O)[C@H]23)OCO4)cc(OC)c1OC | inconclusive: 0.105 µM [inhibitor, full curve] |  |
| C[C@]12CCC(=O)C=C1[C@@H]1C[C@@H]1[C@H]1[C@@H]3[C@@H]4C[C@@H]4[C@@]4(CCC(=O)O4)[C@@]3(C)CC[C@@H]12 | inconclusive: 18.7 µM [inhibitor, partial curve] |  |
| CCN(CC)Cc1ccc(C(=O)N(CCc2ccccc2OC)[C@@H]2CCNC2)cc1 |  | inactive: 0% |
| O=C(NC1CCNCC1)c1[nH]ncc1NC(=O)c1c(Cl)cccc1Cl | inconclusive: 1.05 µM [inhibitor, full curve] |  |
| CC(C)CC(=O)Nc1n[nH]c2c1CN(C(=O)C1CCN(C)CC1)C2(C)C | inconclusive: 1.32 µM [inhibitor, full curve] |  |

By substructure: those above with a CF3 group.

| SMILES | Potency | activity change, negative = inhibition |
| --- | --- | --- |
| COc1cc2ncn(-c3cc(OCc4ccccc4C(F)(F)F)c(C(N)=O)s3)c2cc1OC | active: 1.91 µM |  |
| CCN1CCN(Cc2ccc(NC(=O)Nc3ccc(Oc4cc(NC)ncn4)cc3)cc2C(F)(F)F)CC1 | inconclusive: 4.18 µM [inhibitor, partial curve] |  |
